Source: WO2017222556A2 (dated 2017)
Results are given in words; binding and its absence hold for the method and conditions named. Some binding calls cover weakened binding; strength is not graded here. For some assays here: Where a sequence is shown, tags or fusion partners need not be part of it.

Key:
mouse NKG2D-Fc = biological target: T1, mouse NKG2D-Fc (mouse, UniProt O54709 94-232); assay: competition ELISA: inhibition of mouse NKG2D-Fc binding to plate-coated MICA
T1 construct: also called murine NKG2D-Fc; murine NKG2D; not shown: Fc part, not described
T1 sequence (looked up): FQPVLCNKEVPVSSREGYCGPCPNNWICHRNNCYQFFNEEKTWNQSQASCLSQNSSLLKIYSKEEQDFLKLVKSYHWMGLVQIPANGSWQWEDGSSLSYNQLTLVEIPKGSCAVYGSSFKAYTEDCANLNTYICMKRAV

human NKG2D-Fc = biological target: T2, human NKG2D-Fc (human, UniProt P26718 78-216); assay: competition ELISA: inhibition of human NKG2D-Fc binding to plate-coated WT sMICA
T2 construct: also called human NKG2D-Fc reagent; not shown: Fc part, not described
T2 sequence (looked up): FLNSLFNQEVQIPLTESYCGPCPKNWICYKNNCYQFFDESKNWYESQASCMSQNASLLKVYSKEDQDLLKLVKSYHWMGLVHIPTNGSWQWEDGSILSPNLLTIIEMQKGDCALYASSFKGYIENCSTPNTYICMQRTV

binding (mouse NKG2D-Fc): binds | binding (human NKG2D-Fc): binds
B1: WT al-a2 soluble MICA protein (ligand, UniProt Q29983 24-204, looked up, not shown: small tags and cut ends)
chain: EPHSLRYNLTVLSWDGSVQSGFLTEVHLDGQPFLRCDRQKCRAKPQGQWAEDVLGNKTWDRETRDLTGNGKDLRMTLAHIKDQKEGLHSLQEIRVCEIHEDNSTRSSQHFYYDGELFLSQNLETKEWTMPQSSRAQTLAMNVRNFLKEDAMKTKTHYHAMHADCLQELRRYLKSGVVLRRT
